Experimental data reported in article PMC9241232.

How the values were obtained:
[1] = biological target: T1, HrpA middle region (HrpA-M), Gal4 DNA-binding domain fusion (Neisseria meningitidis strain MC58) (UniProt C0KXI4); assay: two-hybrid; specificity tests: AH109 co-transformed with pGBKT7-HrpAM, -HrpAM1, -HrpAM2 or -HrpAM3 and the isolated prey plasmids; growth on -WL, -HWL and -AHWL media; empty vectors as negative control
T1 sequence: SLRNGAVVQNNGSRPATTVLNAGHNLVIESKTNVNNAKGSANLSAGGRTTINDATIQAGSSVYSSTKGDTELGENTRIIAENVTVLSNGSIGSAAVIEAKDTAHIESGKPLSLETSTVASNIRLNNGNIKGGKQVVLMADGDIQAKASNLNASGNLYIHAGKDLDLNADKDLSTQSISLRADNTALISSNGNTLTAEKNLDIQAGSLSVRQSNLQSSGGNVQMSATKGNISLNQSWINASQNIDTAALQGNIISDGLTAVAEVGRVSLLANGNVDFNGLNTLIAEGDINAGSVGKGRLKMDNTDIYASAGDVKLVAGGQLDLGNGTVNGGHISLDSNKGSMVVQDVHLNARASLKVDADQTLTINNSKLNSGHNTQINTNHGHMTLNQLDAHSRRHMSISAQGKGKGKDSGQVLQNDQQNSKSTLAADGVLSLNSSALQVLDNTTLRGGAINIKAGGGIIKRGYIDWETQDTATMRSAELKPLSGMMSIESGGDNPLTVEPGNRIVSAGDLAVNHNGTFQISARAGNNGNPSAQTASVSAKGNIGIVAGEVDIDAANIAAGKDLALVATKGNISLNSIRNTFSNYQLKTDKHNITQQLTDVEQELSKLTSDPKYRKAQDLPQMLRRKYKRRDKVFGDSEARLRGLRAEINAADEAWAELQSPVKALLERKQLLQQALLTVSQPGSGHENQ

[2] = biological target: T2, HrpA-M1 sub-region, Gal4 DNA-binding domain fusion (Neisseria meningitidis strain MC58) (UniProt C0KXI4); assay: as above
T2 sequence: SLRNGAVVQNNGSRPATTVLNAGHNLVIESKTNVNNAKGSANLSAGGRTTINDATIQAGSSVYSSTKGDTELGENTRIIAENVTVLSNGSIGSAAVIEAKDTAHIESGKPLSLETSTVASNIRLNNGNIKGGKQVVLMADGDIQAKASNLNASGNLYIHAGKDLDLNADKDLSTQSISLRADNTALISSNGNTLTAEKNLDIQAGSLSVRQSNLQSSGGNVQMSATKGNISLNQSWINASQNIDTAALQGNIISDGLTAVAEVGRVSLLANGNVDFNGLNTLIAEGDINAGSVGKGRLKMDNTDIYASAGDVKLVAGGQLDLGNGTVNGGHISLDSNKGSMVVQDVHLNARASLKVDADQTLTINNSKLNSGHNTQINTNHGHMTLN

[3] = biological target: T3, HrpA-M2 sub-region, Gal4 DNA-binding domain fusion (Neisseria meningitidis strain MC58) (UniProt C0KXI4); assay: as above
T3 sequence: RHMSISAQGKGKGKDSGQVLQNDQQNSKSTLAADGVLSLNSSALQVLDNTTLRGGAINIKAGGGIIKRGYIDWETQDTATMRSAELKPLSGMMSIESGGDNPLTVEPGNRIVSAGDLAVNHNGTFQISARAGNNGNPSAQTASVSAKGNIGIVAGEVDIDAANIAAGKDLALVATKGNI

[4] = biological target: T4, HrpA-M3 sub-region, Gal4 DNA-binding domain fusion (Neisseria meningitidis strain MC58) (UniProt C0KXI4); assay: as above
T4 sequence: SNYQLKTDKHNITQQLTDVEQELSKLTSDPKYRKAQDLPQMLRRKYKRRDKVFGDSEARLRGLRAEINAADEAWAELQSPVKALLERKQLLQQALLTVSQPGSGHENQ

[5] = biological target: T1, HrpA middle region (HrpA-M), Gal4 DNA-binding domain fusion (Neisseria meningitidis strain MC58); assay: two-hybrid; library screen: bait Gal4 DNA-binding domain-HrpA-M (pGBKT7-HrpAM) against a HeLa cDNA library (pGADGH) and a human fetal liver cDNA library (pACT-2) in yeast AH109; selection on SD lacking histidine, leucine and tryptophan, then also adenine; beta-galactosidase activity

Substance	binding [1]	binding [2]	binding [3]	binding [4]	binding [5]
Fibrinogen alpha-chain (FGA), Gal4 activation domain fusion (human) (domain or fragment)	binds	binds	no binding	binds	binds
Inter-alpha-trypsin inhibitor heavy chain 3 (ITIH3), Gal4 activation domain fusion (human) (domain or fragment)	binds	binds	binds	binds	binds

No constants are given. Whether binding was seen depends on the method and setting. A result given as binding can be weak or reduced; the word gives no strength. Where a sequence is shown, tags or fusion partners need not be part of it.
